Taken from: PubChem BioAssay AID1508597 (Cure First, 2020)

- Aim: 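Genes whose silencing sensitises or protects ovarian cancer cells against rucaparib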 (primary screen)
- Cells: human ovarian carcinoma lines grown from tumours: OCI-P5x (papillary serous) and OCI-C5x (clear cell)
- Reagent: siRNA pool against human genes, 1.25 pmol siRNA per well
- Duration: 72 h or 96 h, depending on the cell culture
- Conditions: rucaparib 20 µM (about IC30) or vehicle, present until read-out
- Read-out: 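Luminescent ATP-based viability assay read 72 or 96 h after transfection, depending on culture, given as normalised percent viability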
- Direction: viability, normalised: higher = more viable cells remaining
- Rule for the call: 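Active when normalised viability falls below 80 percent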
- Meaning of the calls: active = viability under 80%; inactive = viability 80% or more
The whole screen tested about 2,100 reagents; below is a part drawn at random. 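Calls flag viability under 80% in either arm, not effects specific to rucaparib; the reference for percent is not stated.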 No sequences are given here. The record does not give: the 100% reference.

gene knocked down | rucaparib or vehicle | cell line | technical replicate | viability, normalised (%) | Call
NIN | Rucaparib | OCI-C5x (clear cell) | 1 | 63.3 | active
NIN | Rucaparib | OCI-C5x (clear cell) | 2 | 46.1 | active
NIN | Rucaparib | OCI-C5x (clear cell) | 3 | 38.2 | active
NIN | Rucaparib | OCI-P5x (serous) | 1 | 42.7 | active
NIN | Rucaparib | OCI-P5x (serous) | 2 | 24.6 | active
NIN | Rucaparib | OCI-P5x (serous) | 3 | 43.7 | active
NIN | Vehicle | OCI-C5x (clear cell) | 1 | 32.4 | active
NIN | Vehicle | OCI-C5x (clear cell) | 2 | 47.6 | active
NIN | Vehicle | OCI-C5x (clear cell) | 3 | 51.3 | active
NIN | Vehicle | OCI-P5x (serous) | 1 | 42.9 | active
NIN | Vehicle | OCI-P5x (serous) | 2 | 46.7 | active
NIN | Vehicle | OCI-P5x (serous) | 3 | 52 | active
KDM2A | Rucaparib | OCI-C5x (clear cell) | 1 | 56 | active
KDM2A | Rucaparib | OCI-C5x (clear cell) | 2 | 48.6 | active
KDM2A | Rucaparib | OCI-C5x (clear cell) | 3 | 56.3 | active
KDM2A | Rucaparib | OCI-P5x (serous) | 1 | 72.3 | active
KDM2A | Rucaparib | OCI-P5x (serous) | 2 | 72.3 | active
KDM2A | Rucaparib | OCI-P5x (serous) | 3 | 84.4 | inactive
KDM2A | Vehicle | OCI-C5x (clear cell) | 1 | 50.7 | active
KDM2A | Vehicle | OCI-C5x (clear cell) | 2 | 57.7 | active
KDM2A | Vehicle | OCI-C5x (clear cell) | 3 | 60.6 | active
KDM2A | Vehicle | OCI-P5x (serous) | 1 | 67.5 | active
KDM2A | Vehicle | OCI-P5x (serous) | 2 | 92.2 | inactive
KDM2A | Vehicle | OCI-P5x (serous) | 3 | 80.9 | inactive
NABP2 | Rucaparib | OCI-C5x (clear cell) | 1 | 43.5 | active
NABP2 | Rucaparib | OCI-C5x (clear cell) | 2 | 46.4 | active
NABP2 | Rucaparib | OCI-C5x (clear cell) | 3 | 53.8 | active
NABP2 | Rucaparib | OCI-P5x (serous) | 1 | 44.9 | active
NABP2 | Rucaparib | OCI-P5x (serous) | 2 | 47.7 | active
NABP2 | Rucaparib | OCI-P5x (serous) | 3 | 14.4 | active
NABP2 | Vehicle | OCI-C5x (clear cell) | 1 | 46.2 | active
NABP2 | Vehicle | OCI-C5x (clear cell) | 2 | 31.9 | active
NABP2 | Vehicle | OCI-C5x (clear cell) | 3 | 64.4 | active
NABP2 | Vehicle | OCI-P5x (serous) | 1 | 66.2 | active
NABP2 | Vehicle | OCI-P5x (serous) | 2 | 58.8 | active
NABP2 | Vehicle | OCI-P5x (serous) | 3 | 31.6 | active
MLLT10 | Rucaparib | OCI-C5x (clear cell) | 1 | 44.3 | active
MLLT10 | Rucaparib | OCI-C5x (clear cell) | 2 | 36.2 | active
MLLT10 | Rucaparib | OCI-C5x (clear cell) | 3 | 42.9 | active
MLLT10 | Rucaparib | OCI-P5x (serous) | 1 | 46.1 | active
MLLT10 | Rucaparib | OCI-P5x (serous) | 2 | 49.6 | active
MLLT10 | Rucaparib | OCI-P5x (serous) | 3 | 46.8 | active
MLLT10 | Vehicle | OCI-C5x (clear cell) | 1 | 40.3 | active
MLLT10 | Vehicle | OCI-C5x (clear cell) | 2 | 51.7 | active
MLLT10 | Vehicle | OCI-C5x (clear cell) | 3 | 67.4 | active
MLLT10 | Vehicle | OCI-P5x (serous) | 1 | 52.5 | active
MLLT10 | Vehicle | OCI-P5x (serous) | 2 | 50.6 | active
MLLT10 | Vehicle | OCI-P5x (serous) | 3 | 57.2 | active
DCLRE1A | Rucaparib | OCI-C5x (clear cell) | 1 | 57.1 | active
DCLRE1A | Rucaparib | OCI-C5x (clear cell) | 2 | 52.3 | active
DCLRE1A | Rucaparib | OCI-C5x (clear cell) | 3 | 65.7 | active
DCLRE1A | Rucaparib | OCI-P5x (serous) | 1 | 63.8 | active
DCLRE1A | Rucaparib | OCI-P5x (serous) | 2 | 65.9 | active
DCLRE1A | Rucaparib | OCI-P5x (serous) | 3 | 59.6 | active
DCLRE1A | Vehicle | OCI-C5x (clear cell) | 1 | 120 | inactive
DCLRE1A | Vehicle | OCI-C5x (clear cell) | 2 | 59.3 | active
DCLRE1A | Vehicle | OCI-C5x (clear cell) | 3 | 74.6 | active
DCLRE1A | Vehicle | OCI-P5x (serous) | 1 | 60.4 | active
DCLRE1A | Vehicle | OCI-P5x (serous) | 2 | 72.8 | active
DCLRE1A | Vehicle | OCI-P5x (serous) | 3 | 64.7 | active
LSM1 | Rucaparib | OCI-C5x (clear cell) | 1 | 58.1 | active
LSM1 | Rucaparib | OCI-C5x (clear cell) | 2 | 52.4 | active
LSM1 | Rucaparib | OCI-C5x (clear cell) | 3 | 46.3 | active
LSM1 | Rucaparib | OCI-P5x (serous) | 1 | 53.3 | active
LSM1 | Rucaparib | OCI-P5x (serous) | 2 | 69 | active
LSM1 | Rucaparib | OCI-P5x (serous) | 3 | 62 | active
LSM1 | Vehicle | OCI-C5x (clear cell) | 1 | 63.6 | active
LSM1 | Vehicle | OCI-C5x (clear cell) | 2 | 61.7 | active
LSM1 | Vehicle | OCI-C5x (clear cell) | 3 | 51.7 | active
LSM1 | Vehicle | OCI-P5x (serous) | 1 | 66 | active
LSM1 | Vehicle | OCI-P5x (serous) | 2 | 61.7 | active
LSM1 | Vehicle | OCI-P5x (serous) | 3 | 75.8 | active
SNAPC4 | Rucaparib | OCI-C5x (clear cell) | 1 | 38.4 | active
SNAPC4 | Rucaparib | OCI-C5x (clear cell) | 2 | 48.7 | active
SNAPC4 | Rucaparib | OCI-C5x (clear cell) | 3 | 45.4 | active
SNAPC4 | Rucaparib | OCI-P5x (serous) | 1 | 42.9 | active
SNAPC4 | Rucaparib | OCI-P5x (serous) | 2 | 55.4 | active
SNAPC4 | Rucaparib | OCI-P5x (serous) | 3 | 53.1 | active
SNAPC4 | Vehicle | OCI-C5x (clear cell) | 1 | 36.2 | active
SNAPC4 | Vehicle | OCI-C5x (clear cell) | 2 | 51.6 | active
SNAPC4 | Vehicle | OCI-C5x (clear cell) | 3 | 44.4 | active
SNAPC4 | Vehicle | OCI-P5x (serous) | 1 | 55.9 | active
SNAPC4 | Vehicle | OCI-P5x (serous) | 2 | 47.4 | active
SNAPC4 | Vehicle | OCI-P5x (serous) | 3 | 56.1 | active

Copied from the list.
Under “Call”, LSM1, rucaparib or vehicle Vehicle, cell line OCI-P5x (serous), technical replicate 1 has active
DCLRE1A, rucaparib or vehicle Rucaparib, cell line OCI-C5x (clear cell), technical replicate 3, Call → active
NABP2, rucaparib or vehicle Vehicle, cell line OCI-C5x (clear cell), technical replicate 3, Call = active
For “viability, normalised (%)”, LSM1, rucaparib or vehicle Vehicle, cell line OCI-C5x (clear cell), technical replicate 2 shows 61.7
Value of LSM1, rucaparib or vehicle Rucaparib, cell line OCI-P5x (serous), technical replicate 1 in “Call”: active
